Reference: patent US20170037111A1, “Novel peptides and combination of peptides for use in immunotherapy against ovarian cancer and other cancers” (immatics biotechnologies GmbH, priority 2015, published 2017)

System: tumor samples of other cancer types
Experiment: LC-MS detection of peptide presentation on other tumor types, normal tissues and cell lines (Table 4A/4B, FIG. 1)
Set-up: species or system human
Conditions: FIG. 1D, 1L-AE: samples with detection

Sequence | normal tissues with detectable presentation (which tissues)
ALLENPKMEL (listed as Homo sapiens) [SEQ ID NO 441] | 1 adrenal gland
FLFPNQYVDV (listed as Homo sapiens) [SEQ ID NO 248] | 1 spleen
FLLEDDIHVS (listed as Homo sapiens) [SEQ ID NO 38] | 1 trachea
KIFEMLEGV (listed as Homo sapiens) [SEQ ID NO 11] | 1 brain, 1 lung, 1 ureter
KLDDLTQDLTV (listed as Homo sapiens) [SEQ ID NO 32] | 1 liver
KLLNKIYEA (listed as Homo sapiens) [SEQ ID NO 620] | 1 lung, 1 uterus
KTINKVPTV (listed as Homo sapiens) [SEQ ID NO 198] | 1 lung
SLFGNSGILENV (listed as Homo sapiens) [SEQ ID NO 479] | 1 spleen
SLMEPPAVLLL (listed as Homo sapiens) [SEQ ID NO 1] | 1 lymph node
VMNDRLYAI (listed as Homo sapiens) [SEQ ID NO 587] | 1 pancreas, 3 spleens, 1 thyroid gland
